From patent US20160289663A1, “NOVEL CHIMERIC GENE ATF7IP-PDGFRB OF ACUTE LYMPHOBLASTIC LEUKEMIA” (priority 2013, published 2016)
At least one structure is not confirmed: it was looked up by name or label, or the drawing left a doubt.

What was measured:
[1] = test system: ATF7IP-PDGFRB-expressing Ba/F3 cells; experiment: Cell proliferation (WST) assay, ATF7IP-PDGFRB Ba/F3 transfectants without conditioned medium
Protocol: (A) ATF7IP-PDGFRB-expressing Ba/F3 cells in the absence of WEHI-3-conditioned medium (CM) and Mock Ba/F3 cells in the presence of CM were each treated with or without either the PI3 kinase inhibitor LY294002 or the MEK inhibitor PD98059 at the indicated concentrations for 24 hours. Subsequently, the number of living cells was estimated for each type of the cells by WST assay in the same way as in FIG. 5B. The ratio of the OD value obtained from the inhibitor-treated cells relative to that obtained from the inhibitor-untreated cells was calculated and expressed as the means±SEM of triplicates. (B) ATF7IP-PDGFRB-expressing Ba/F3 cells were treated with PD98059 in the presence or absence of CM, and examined in the same way as in (A). […]
The data were analyzed by F-test. P values less than 0.05 were considered significant. All experiments were performed at least three times to calculate means and SEM values.

[2] = test system: recurrent Ph-like acute lymphoblastic leukemia bearing ATF7IP/PDGFRB translocation; experiment: Dasatinib monotherapy case report, MRD monitored by leukemia-specific genomic PCR; set-up: species or system human; conditions: in vivo
[3] = test system: phosphorylation of MAP kinases/AKT and PDGFRB in ATF7IP-PDGFRB-expressing Ba/F3 cells; experiment: Immunoblot of MAP kinase/AKT/PDGFRB phosphorylation in ATF7IP-PDGFRB Ba/F3 cells; assay type: cell-based, mouse; conditions: immunoblotting, FIG. 11
Protocol: Cell lysates were prepared from the same sample preparations as in FIG. 10. Immunoblot analysis was performed in the same way as in FIG. 8. Abbreviations: None, without inhibitor; LY, with LY294002; and PD, with PD98059.
Immunoblot analysis was performed as in FIG. 8.
Immunoblot analysis was performed as described previously (Kiyokawa, et al., J Biol Chem, 1997, 272, 18656-18665; Tomita, et al., Leukemia Research, 2014, 38, 361-370) using the following antibodies: anti-phosphotyrosine (4G10; Merck Millipore), anti-PDGF receptor β (28E1), anti-phospho-PDGF receptor β Tyr751 (C63G6), anti-phospho-PDGF receptor β Tyr 771 (76D6), anti-phospho-PDGF receptor β Tyr1009 (42F9), anti-phospho-PDGF receptor β Tyr1021 (6F10), anti-phospho-p44/42 MAPK (ERK1/2, Tyr202/Tyr204), anti-phospho-p38 MAPK (Thr180/Tyr182), anti-phospho-JNK (Thr183/Tyr185, 81E11), anti-phospho-AKT (Ser473), anti-phospho-PLCγ1 (Tyr783), anti-Casitas B-lineage lymphoma binding (Cbl), anti-p38 MAPK antibody and anti-JNK antibody (Cell Signaling Technology); anti-ATF7IP (MCAF1) (Abcam, Cambridge, UK); anti-ERK, anti-PLCγ, (BD Biosciences, San Jose, Calif., USA); anti-β-actin (Sigma-Aldrich, St. Louis, Mo.); and horseradish peroxidase (HRP)-conjugated secondary antibody (Dako, Glostrup, Denmark). […]

[4] = test system: Mock Ba/F3 cells; experiment: Cell proliferation (WST) assay, Mock Ba/F3 cells with WEHI-3-conditioned medium; assay type: cell-based, mouse; conditions: 24 hours, presence of conditioned medium, FIG. 10A
Protocol: The data were analyzed by F-test. P values less than 0.05 were considered significant.

SMILES | cell proliferation ([1]; IL-3-independent proliferation, exposure to TKI) | effectiveness in ATF7IP-PDGFRB gene fusion-positive ALL patients [2] | phosphorylation of AKT [3] | cell death ([1]; 24 hours, absence of conditioned medium, FIG. 10A) | cell death [4]
Cc1nc(Nc2ncc(C(=O)Nc3c(C)cccc3Cl)s2)cc(N2CCN(CCO)CC2)n1 [dasatinib] | significantly inhibited in a concentration-dependent manner | effective |  |  | 
O=c1cc(N2CCOCC2)oc2c(-c3ccccc3)cccc12 [LY294002] |  |  | clearly reduced | induced cell death | induced cell death
